In PubChem BioAssay AID1471 (National Center for Advancing Translational Sciences (NCATS), 2008):
Several values for one entry are separate records, joined by “and”; a condition that tells them apart may be missing. Equal entries are not always repeated. Out of some 230,000 compounds screened, about 310 (0.13%) were called active. Inconclusive means that the source gave no clear call. Such entries were picked first, then a sample of the others. Calls follow the shape of the dose curve; as a rule, active = well fitted activation curve with a large enough effect; inconclusive = small, poorly fitted or top-dose-only effect; inactive = no such curve, though single readings can be large or run the other way. A potency beside an inconclusive call is a rough fit, not a confirmed value.

experiment: qHTS Multiplex Assay to Identify Dual Action Probes in a Cell Model of Huntington: Cytoprotection (ATP); conditions: PC12 HTT-Q103 induced, ATP luminescence, 40 h; cytoprotection (ATP increase): at 56.4 µM (top of the series) unless noted; also: nearly all actives have a fitted effect of over 45% in size;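 as to cytoprotection (ATP increase): toxic huntingtin expression switched on by the ecdysone agonist tebufenozide; % of control where 0% means no effect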
Outline: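 Compounds were screened for protection of PC12 cells against cell death after tebufenozide induction (100 nM final) of mutant Huntingtin exon 1 (Q103) fused to GFP.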
Potency is read from the fitted curve at half-maximal effect.

Compound | cytoprotection (ATP increase) | Potency
O=S(=O)(Nc1cc2nc3ccccc3nc2n1Cc1ccccc1)c1ccc(Cl)cc1 | inactive: -44.1% [at 10 µM] | 
O=C1/C(=C/c2ccc(O)c(O)c2)Oc2cc(O)ccc21 | inactive: 11.4% [at 10 µM] | 
CC(C)c1ccc(S(=O)(=O)c2n[nH]n3c2nc(=O)c2ccccc23)cc1 | inactive: 5.24% [at 10 µM] | 
CN(Cc1ccc2nsnc2c1)Cc1nc(Cc2cccc(F)c2)no1 |  | inconclusive: 2.51 µM [activator, single point]
CCOC(=O)N1CCN(C(=O)c2ccc3c(=O)n(CC4CCCO4)c(=S)[nH]c3c2)CC1 (stereo not given) | inactive: -8.36% | 
O=C(O)CCNC(=O)/C(=C/C=C/c1ccccc1)NC(=O)c1ccccc1 |  | inconclusive: 3.16 µM [activator, single point]
CCOC(=O)N1CCC(NC(=O)c2ccc(Cl)cc2)CC1 | inactive: 9.67% [at 10 µM] | 
CO[C@H]1COC(=O)[C@@H](Cc2ccccc2)NC(=O)[C@@H](C)COC(=O)C/C=C\[C@@H]1C |  | inconclusive: 0.158 µM [activator, single point]
CCN(CC)S(=O)(=O)c1ccc(NC(=O)C2c3ccccc3Oc3ccccc32)cc1 |  | inconclusive: 1 µM [activator, single point]
Cc1ccc(S(=O)(=O)/N=C(/c2ccccc2)N(C)c2ccc(O)cc2)cc1 |  | inconclusive: 7.08 µM [activator, partial curve]
CC(=O)OC1CCC2C3CCc4cc(O)ccc4C3CCC12C (stereo not given) |  | inconclusive: 0.1 µM [activator, full curve, poor fit]
COc1ccc(Cn2nnnc2CN2CCc3ccccc32)cc1 |  | inconclusive: 1.26 µM [activator, single point]
Cc1nc(N2CCc3ccccc3C2)[nH]c(=O)c1Cc1ccccc1 | inactive: -3.9% [at 10 µM] | 
Cc1ccc(-n2c(C)nn(CC3CC3)c2=O)cc1 |  | inconclusive: 0.316 µM [activator, full curve]
COc1ccc(NC(=O)CSc2nnc(-c3cccs3)n2C)cc1OC | inactive: -10.8% [at 0.074 µM] | 
CC(C)NC[C@@H](O)COc1ccc(CCOCC2CC2)cc1 |  | inconclusive: 14.1 µM [activator, single point] and inconclusive: 1.41 µM [activator, partial curve, poor fit]
Cc1ccccc1OCc1nc(-c2ccc(NC(=O)c3ccc4c(c3)OCO4)cc2)no1 | inactive: -57.3% | 
CC1CC1C(=O)OCC(=O)NC(=O)NCc1ccco1 (stereo not given) |  | inconclusive: 3.55 µM [activator, single point]
CCOc1ccc(N/C(SCc2cccc([N+](=O)[O-])c2)=C(/C#N)C(N)=O)cc1 |  | inconclusive: 35.5 µM [activator, single point]
COC(=O)c1cc(C#N)c(Oc2cccc(C)c2C)nc1C |  | inconclusive: 1.26 µM [activator, partial curve]
Cn1c(C(=O)NCc2ccco2)cc2c(=O)[nH]c3ccccc3c21 |  | inconclusive: 0.501 µM [activator, full curve, poor fit]
CC(C)=CCCC(C)CCO (stereo not given) |  | inconclusive: 39.8 µM [activator, single point] and inconclusive: 1.26 µM [activator, single point]

Compound | cytoprotection (ATP increase) | Potency
O=c1c2ccc([N+](=O)[O-])cc2ncn1Cc1ccccc1C(F)(F)F |  | inconclusive: 5.62 µM [activator, single point]
CN(C)c1ccc(-c2cc(NCc3cccnc3)ncn2)cc1 | inactive: -76% | 
Cn1c(N)c(C(=O)COC(=O)c2cc(C(F)(F)F)nc3ccccc23)c(=O)n(C)c1=O |  | inconclusive: 12.6 µM [activator, single point]
CCC(=O)Nc1ccc2c(c1)nc1n2CCN(C2CCCCC2)C1 |  | inconclusive: 3.55 µM [activator, single point]
COc1ccc2c(c1)nc(SCC(=O)c1ccc(Br)s1)n2C |  | inconclusive: 5.62 µM [activator, single point]
CN=C1NN=C(c2cc(C)n(-c3ccc(Cl)cc3)c2C)CS1 | inactive: -8.88% | 
Cc1onc(-c2ccccc2)c1C(=O)N1CCCN(C(=O)c2c(-c3ccccc3)noc2C)CC1 | inactive: 18.7% | 
CCOc1ccccc1N1CCN(C(=O)c2cccc(-c3ccc(O)cc3)c2)CC1 |  | inconclusive: 39.8 µM [activator, single point]
COC(=O)[C@@]1(Cc2ccc(F)cc2)[C@H]2c3cc(C(=O)N(C)C)n(Cc4ccccc4)c3C[C@H]2CN1C(=O)c1ccccc1 |  | inconclusive: 15.8 µM [activator, single point]
CCC(=O)NCCc1nc2ccccc2n1Cc1ccc(C)cc1 |  | inconclusive: 1.12 µM [activator, single point]
CC[C@@H](C)[C@H](NC(=O)OC(C)(C)C)c1nnc(S(=O)(=O)Cc2cc(C)ccc2C)o1 |  | inconclusive: 25.1 µM [activator, single point]
COCCNC(=O)c1ccc(NC(=O)C2(c3ccccc3)CCCC2)cc1 |  | inconclusive: 1.26 µM [activator, single point]
N#CCCn1c(=O)c(-c2ccc(F)cc2)nc2cnc(OCc3ccccc3)nc21 |  | inconclusive: 0.005 µM [activator, full curve, poor fit]
CC1CCN(S(=O)(=O)c2ccc(C(=O)NCc3ccc4c(c3)OCO4)cc2)CC1 | inactive: -3.12% | 
COc1ccc(COC(=O)N/N=C2/C[C@@H](O)[C@@H](O)[C@@H]3[C@H]4C(=O)N(c5ccc(F)cc5F)C(=O)[C@@H]4CC[C@H]23)cc1 | inactive: 0.706% [at 10 µM] | 
COc1ccc(-n2nnnc2SCC(=O)N2CCN(C(=O)c3ccco3)CC2)cc1OC | inactive: -17.2% | 
Cc1c(C)n(C(=O)CSc2nc3ccccc3[nH]2)c2ccccc12 |  | inconclusive: 3.55 µM [activator, single point]
CC(=O)c1ccc(NC(=O)CSc2ccc3nnc(-c4cccnc4)n3n2)cc1 |  | inconclusive: 35.5 µM [activator, single point]
CCCN(CCC)c1nc(C#N)nc(N(CCC)CCC)n1 |  | inconclusive: 3.98 µM [activator, single point]
O=C1C2C3CCC(C3)C2C(=O)N1Cc1ccco1 (stereo not given) | inactive: 8.62% [at 0.074 µM] | 
COc1ccc(OC)c(CN2C(=O)CCC2(C)C(=O)NC2CCCCCC2)c1 (stereo not given) |  | inconclusive: 35.5 µM [activator, single point]
CC1(C)CN(c2cccc(C#N)c2)C1=O |  | inconclusive: 3.55 µM [activator, partial curve]

Reformatted with each value named: 3 of the compounds above.
CCC(=O)Nc1ccc2c(c1)nc1n2CCN(C2CCCCC2)C1
  Potency: inconclusive: 3.55 µM [activator, single point]
COc1ccc(OC)c(CN2C(=O)CCC2(C)C(=O)NC2CCCCCC2)c1 (stereo not given)
  Potency: inconclusive: 35.5 µM [activator, single point]
CC1(C)CN(c2cccc(C#N)c2)C1=O
  Potency: inconclusive: 3.55 µM [activator, partial curve]

Continuation.

Compound | cytoprotection (ATP increase) | Potency
N#Cc1cccc(CS(=O)(=O)c2nnnn2C2CCCCC2)c1 |  | inconclusive: 20 µM [activator, partial curve, poor fit]
CNS(=O)(=O)c1ccc(OC)c(-c2nnc3c4ccccc4c(C)nn23)c1 | inactive: -72.6% | 
COC(=O)C1=C(C(=O)OC)[C@@H]2N(C)c3ccc(OC)cc3[C@@]23C[C@@H](C(=O)OC)N(S(=O)(=O)c2cccs2)C3=N1 | inactive: 11.3% [at 10 µM] | 
Cc1ccc(Cl)cc1N1CCN(C(=O)CSc2nnc3n2C(C)(C)Cc2ccccc2-3)CC1 |  | inconclusive: 0.112 µM [activator, full curve, poor fit]
CCOCCOC(=O)C(C)Oc1ccc(Oc2nc(Cl)ccc2Cl)cc1 (stereo not given) |  | inconclusive: 31.6 µM [activator, single point]
CC1CN(CC(=O)Nc2cc(S(=O)(=O)N3CCCC3)ccc2Cl)CC(C)O1 (stereo not given) | inactive: -7.36% | 
CN(C)CCCN(C(=O)CCSc1ccccc1)c1nc2cc3c(cc2s1)OCO3 |  | inconclusive: 31.6 µM [activator, single point]
CCOc1ccccc1N1CCN(C(=O)CCCc2nc3ccccc3s2)CC1 |  | inconclusive: 0.794 µM [activator, full curve, poor fit]
COc1ccc(CNC(=O)CSc2nnc(C(F)(F)F)n2C)cc1 |  | inconclusive: 3.16 µM [activator, single point]
COC(=O)c1ccc(N2CCN(S(=O)(=O)c3ccccc3)CC2)c([N+](=O)[O-])c1 |  | inconclusive: 1.26 µM [activator, single point]
Cc1cccc(-n2ncc3c(NCCN4CCOCC4)ncnc32)c1 | inactive: -28.5% | 
COC(=O)C1C(=O)C(C(=O)/C=C/c2ccccc2)C(=O)CC1(C)C (stereo not given) |  | inconclusive: 14.1 µM [activator, single point]
COC(=O)Nc1sc2c(c1C(=O)NC1CC1)CCCCCC2 | inactive: -15.5% | 
CCCCc1nc2sc3c(SCC(=O)NCc4ccco4)ncnc3c2c2c1CCC2 | inactive: -23.8% | 
CC(=O)c1cc(C#N)c(SCC(=O)OC(C)(C)C)nc1C | inactive: -15.2% [at 0.074 µM] | 
O=C(CSc1ccc2nnc(CCNC(=O)c3ccccc3)n2n1)Nc1ccccc1 |  | inconclusive: 3.98 µM [activator, single point]
Cc1ccccc1-c1nn(-c2ccc(F)cc2F)cc1CNCCCO |  | inconclusive: 5.62 µM [activator, single point]
CCCCC/C=C\C/C=C\C/C=C\CCCCC(=O)NC(C)C(=O)O (stereo not given) | inactive: -33.2% | 
FC(F)(F)c1ccccc1-n1ccnc1 |  | inconclusive: 0.282 µM [activator, partial curve]
CCCCN1CCC(COC(=O)c2cc(Cl)c(N)c3c2OCCO3)CC1 |  | inconclusive: 0.0016 µM [activator, partial curve, poor fit]
CCN(CC)c1ccc2c(Cl)c(Br)c(=O)oc2c1 |  | inconclusive: 39.8 µM [activator, single point]
